In patent US20120316199A1, “COMPOSITIONS AND METHODS FOR TREATING, CONTROLLING, REDUCING, OR AMELIORATING INFLAMMATORY PAIN” (priority 2011, published 2012):
This continues a long series; more values of the same kind are listed elsewhere.

Tested on: intraocular pressure (IOP)
Test: Intraocular pressure in New Zealand White rabbits, topical dosing four times daily
Assay type: in vivo
Conditions: P.M. readings
Method: On Days 1-31, animals received daily topical doses of the appropriate test article into the right eye. Animals were dosed four times per day, with doses administered 2 hours apart. Doses were administered using a calibrated 50-μL pipette. The eyelids were held close for 10 seconds immediately following dosing. The time of each dose administration was recorded.
Intraocular pressure (“IOP”) was determined for both eyes of each animal on Days 3, 5, 10, 12, 16, 18, 22, 24, 26, 30, and 32. IOP was evaluated with a Medtronic Solan, Model 30 classic pneumatonometer. Proparacaine hydrochloride 0.5% (1 drop) was delivered to each eye prior to IOP measurement. IOP was measured on Monday. Wednesday, and Friday of each week. A two-point diurnal curve was established: IOP was recorded at 8 a.m. and 12 p.m. on Day 3, and at 8 a.m. and 2 p.m. on later days, with a ±1 hour range for each of these times. The time of the measurements was recorded.
Descriptive statistics were prepared for IOP data of each treatment group (left and right eyes separately) at each measurement interval. The statistics included the number of observations (“N”) mean, standard deviation (“STD”), and standard error (“SEM”). Statistical analyses were conducted on IOP results using Statistical Analysis Systems (SAS Institute. Inc., Cary, N.C. V8.0). Parameters were evaluated using analysis of variance/GLM Procedure followed by Tukey's Standardized Range Test (Tukey, 1985) for post hoc comparisons of group means. The level of significance was set at a probability of p<0.05 for all statistical procedures. Group IOP means were compared at each interval, with left and right eyes compared separately.

SMILES: Cc1ccc2c(NC[C@](O)(CC(C)(C)c3cc(F)cc4c3OCC4)C(F)(F)F)cccc2n1 [BOL-303242-X, mapracorat]
- Intraocular Pressure, MEAN (treated right eyes, Day 3, 1 mg/g (Group D)): 24.7 mmHg
- Intraocular Pressure, MEAN (treated right eyes, Day 3, 5 mg/g (Group C)): 23.6 mmHg
- Intraocular Pressure, MEAN (treated right eyes, Day 3, 10 mg/g (Group B)): 23.1 mmHg
- Intraocular Pressure, MEAN (treated right eyes, Day 5, 1 mg/g (Group D)): 25.5 mmHg
- Intraocular Pressure, MEAN (treated right eyes, Day 5, 5 mg/g (Group C)): 24.8 mmHg
- Intraocular Pressure, MEAN (treated right eyes, Day 5, 10 mg/g (Group B)): 25.7 mmHg
- Intraocular Pressure, MEAN (treated right eyes, Day 10, 1 mg/g (Group D)): 25.3 mmHg
- Intraocular Pressure, MEAN (treated right eyes, Day 10, 5 mg/g (Group C)): 25.6 mmHg
- Intraocular Pressure, MEAN (treated right eyes, Day 10, 10 mg/g (Group B)): 24.3 mmHg
- Intraocular Pressure, MEAN (treated right eyes, Day 12, 1 mg/g (Group D)): 24.0 mmHg
- Intraocular Pressure, MEAN (treated right eyes, Day 12, 5 mg/g (Group C)): 23.4 mmHg
- Intraocular Pressure, MEAN (treated right eyes, Day 12, 10 mg/g (Group B)): 23.8 mmHg
- Intraocular Pressure, MEAN (treated right eyes, Day 16, 1 mg/g (Group D)): 22.0 mmHg
- Intraocular Pressure, MEAN (treated right eyes, Day 16, 5 mg/g (Group C)): 21.4 mmHg
- Intraocular Pressure, MEAN (treated right eyes, Day 16, 10 mg/g (Group B)): 21.6 mmHg
- Intraocular Pressure, MEAN (treated right eyes, Day 18, 1 mg/g (Group D)): 23.1 mmHg
- Intraocular Pressure, MEAN (treated right eyes, Day 18, 5 mg/g (Group C)): 21.6 mmHg
- Intraocular Pressure, MEAN (treated right eyes, Day 18, 10 mg/g (Group B)): 22.5 mmHg
- Intraocular Pressure, MEAN (treated right eyes, Day 22, 1 mg/g (Group D)): 22.5 mmHg
- Intraocular Pressure, MEAN (treated right eyes, Day 22, 5 mg/g (Group C)): 22.8 mmHg
- Intraocular Pressure, MEAN (treated right eyes, Day 22, 10 mg/g (Group B)): 23.1 mmHg
- Intraocular Pressure, MEAN (treated right eyes, Day 24, 1 mg/g (Group D)): 23.6 mmHg
- Intraocular Pressure, MEAN (treated right eyes, Day 24, 5 mg/g (Group C)): 23.4 mmHg
- Intraocular Pressure, MEAN (treated right eyes, Day 24, 10 mg/g (Group B)): 22.8 mmHg
- Intraocular Pressure, MEAN (treated right eyes, Day 26, 1 mg/g (Group D)): 22.6 mmHg
- Intraocular Pressure, MEAN (treated right eyes, Day 26, 5 mg/g (Group C)): 22.2 mmHg
- Intraocular Pressure, MEAN (treated right eyes, Day 26, 10 mg/g (Group B)): 20.9 mmHg
- Intraocular Pressure, MEAN (treated right eyes, Day 30, 1 mg/g (Group D)): 21.8 mmHg
- Intraocular Pressure, MEAN (treated right eyes, Day 30, 5 mg/g (Group C)): 22.4 mmHg
- Intraocular Pressure, MEAN (treated right eyes, Day 30, 10 mg/g (Group B)): 22.4 mmHg
- Intraocular Pressure, MEAN (treated right eyes, Day 32, 1 mg/g (Group D)): 22.9 mmHg
- Intraocular Pressure, MEAN (treated right eyes, Day 32, 5 mg/g (Group C)): 22.7 mmHg
- Intraocular Pressure, MEAN (treated right eyes, Day 32, 10 mg/g (Group B)): 23.3 mmHg
- Intraocular Pressure, MEAN (treated right eyes, Pre-Study, 1 mg/g (Group D)): 24.2 mmHg
- Intraocular Pressure, MEAN (treated right eyes, Pre-Study, 5 mg/g (Group C)): 24.5 mmHg
- Intraocular Pressure, MEAN (treated right eyes, Pre-Study, 10 mg/g (Group B)): 24.0 mmHg
- Intraocular Pressure, MEAN (untreated left eyes, Day 30, 1 mg/g (Group D)): 21.3 mmHg
- Intraocular Pressure, MEAN (untreated left eyes, Day 30, 5 mg/g (Group C)): 20.9 mmHg
- Intraocular Pressure, MEAN (untreated left eyes, Day 32, 1 mg/g (Group D)): 21.9 mmHg
- Intraocular Pressure, MEAN (untreated left eyes, Day 32, 5 mg/g (Group C)): 21.5 mmHg
- Intraocular Pressure, MEAN (untreated left eyes, Day 32, 10 mg/g (Group B)): 22.6 mmHg
- Intraocular Pressure, MEAN (untreated left eyes, Pre-Study, 1 mg/g (Group D)): 24.2 mmHg
- Intraocular Pressure, MEAN (untreated left eyes, Pre-Study, 5 mg/g (Group C)): 24.4 mmHg
- Intraocular Pressure, MEAN (untreated left eyes, Pre-Study, 10 mg/g (Group B)): 23.9 mmHg
